These are yes or no findings as the source states them, for the method shown. Some binding calls cover weakened binding; strength is not graded here.
T1: mouse VEGF-A (mouse) (UniProt Q00731)
T1 sequence (looked up): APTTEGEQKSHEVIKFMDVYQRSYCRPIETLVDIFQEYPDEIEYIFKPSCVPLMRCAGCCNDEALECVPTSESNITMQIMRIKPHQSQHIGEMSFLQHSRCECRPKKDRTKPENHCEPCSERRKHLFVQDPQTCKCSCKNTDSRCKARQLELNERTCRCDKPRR

Amino acid sequences for entries named in this document (tags omitted). A change or cut given only in a name is not applied to a line headed by its entry. Chains listed by the source or under a name are the forms on record and can include a tag or linker.
human VEGF-A (P15692, form named): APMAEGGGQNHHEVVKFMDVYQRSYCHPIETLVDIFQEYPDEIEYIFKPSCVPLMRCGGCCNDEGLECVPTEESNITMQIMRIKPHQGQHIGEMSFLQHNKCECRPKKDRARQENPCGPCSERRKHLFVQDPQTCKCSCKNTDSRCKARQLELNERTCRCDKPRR

B1: Strain #48 VHH (VHH, not shown: a dimerising Fc or GST)
VHH: EVQLLESGGGLVQPGGSLRLSCAASGFTFSTSTMSWYRQAPGKERELVSFITSAGATTYYADSVKGRFTMSRDNSKNTVYLQMNSLRAEDTAVYYCRALVTLWNVYWGQGTLVTVSS
B2: Strain #6 VHH (Fc fusion, not shown: a dimerising Fc or GST)
chain: QVQLQESGGGLVQPGGSLRLSCAASGFTFSTSTMSWYRQAPGKERELVAFITSAGATTNYADSVKDRFTMSRDNDKNTVYLQMNVLKPEDTAMYYCRALVTLWNVYWGQGTQVTVSS

Columns and labels:
[1] = biological target: human VEGF (ACRO, His tag) (human) (UniProt P15692); experiment: ELISA, human VEGF (His tag) coated
human VEGF-A (human) = human VEGF-A (human) (UniProt P15692); experiment: ELISA, VHH-Fc expression supernatant
mouse VEGF-A (mouse) = biological target: T1, mouse VEGF-A (mouse); experiment: ELISA, VHH-Fc expression supernatant

Row | Binder | binding [1] | binding (human VEGF-A (human)) | binding (mouse VEGF-A (mouse))
1 | B1 | binds |  | 
2 | B2 |  | binds | binds

Reference: US20260055173A1
